According to US12559495B2 (Agency for Science, Technology and Research, priority 2013, dated 2026):
At least one compound was matched to its structure with a doubt left.

Test system: MMTV-WNT1 tumors
Assay: MMTV-WNT1 tumor model
Format: in vivo
Conditions: female nude mice, 30 mg/kg once daily for 19 days

SMILES: Cn1c(=O)c2c(ncn2CC(=O)Nc2ccc(-c3ccccc3)nn2)n(C)c1=O [Compound 5, 2-(1,3-dimethyl-2,6-dioxo-1,2,3,6-tetrahydro-7H-purin-7-yl)-N-(6-phenylpyridazin-3-yl)acetamide]
- tumor growth (tumor volumes): decreased tumor growth in all the treated mice
- tumor weights collected at sacrifice: significant decrease
